We go through two molecules from publication doi:10.1101/2024.09.24.614577 (bioRxiv, 2024).

Read-outs that look alike come from different tables or passages of the source. Results are given in words; binding and its absence hold for the method and conditions named. Some entries that bind do so weakly or less than the wild type. Tags and fused reporters may be left off the sequences shown.

Common to all, as to experiment: SEC
The target of assay [1] is human GPR155 (residues 1-870) with C-terminal eGFP and Strep-tag (human) (UniProt Q7Z3F1).
For assay [2] the target is unchanged. This is another data set of the same source.
Assay [3] has as its target human GPR155 (residues 1-870), construct without the eGFP tag (human) (UniProt Q7Z3F1).

B1: human GPR155 (residues 1-870) with C-terminal eGFP and Strep-tag (receptor, UniProt Q7Z3F1 1-870)
chain: MNSNLPAENLTIAVNMTKTLPTAVTHGFNSTNDPPSMSITRLFPALLECFGIVLCGYIAGRANVITSTQAKGLGNFVSRFALPALLFKNMVVLNFSNVDWSFLYSILIAKASVFFIVCVLTLLVASPDSRFSKAGLFPIFATQSNDFALGYPIVEALYQTTYPEYLQYIYLVAPISLMMLNPIGFIFCEIQKWKDTQNASQNKIKIVGLGLLRVLQNPIVFMVFIGIAFNFILDRKVPVYVENFLDGLGNSFSGSALFYLGLTMVGKIKRLKKSAFVVLILLITAKLLVLPLLCREMVELLDKGDSVVNHTSLSNYAFLYGVFPVAPGVAIFATQFNMEVEIITSGMVISTFVSAPIMYVSAWLLTFPTMDPKPLAYAIQNVSFDISIVSLISLIWSLAILLLSKKYKQLPHMLTTNLLIAQSIVCAGMMIWNFVKEKNFVGQILVFVLLYSSLYSTYLWTGLLAISLFLLKKRERVQIPVGIIIISGWGIPALLVGVLLITGKHNGDSIDSAFFYGKEQMITTAVTLFCSILIAGISLMCMNQTAQAGSYEGFDQSQSHKVVEPGNTAFEESPAPVNEPELFTSSIPETSCCSCSMGNGELHCPSIEPIANTSTSEPVIPSFEKNNHCVSRCNSQSCILAQEEEQYLQSGDQQLTRHVLLCLLLIIGLFANLSSCLWWLFNQEPGRLYVELQFFCAVFNFGQGFISFGIFGLDKHLIILPFKRRLEFLWNNKDTAENRDSPVSEEIKMTCQQFIHYHRDLCIRNIVKERRCGAKTSAGTFCGCDLVSWLIEVGLASDRGEAVIYGDRLVQGGVIQHITNEYEFRDEYLFYRFLQKSPEQSPPAINANTLQQERYKEIEHSSPPSHSPKT
For the molecule B1, the binding result in assay [1] is listed as “binds weakly”; in assay [2] it was “binds”.

B2: human GPR155 (residues 1-870), construct without the eGFP tag (receptor, UniProt Q7Z3F1 1-870, looked up)
chain: B1 chain
B2: the binding entry in assay [3] is reported as “binds weakly”.
